Cell number change and AC50 data for 65 compounds are collected here from PubChem BioAssay AID2685 (National Center for Advancing Translational Sciences (NCATS), 2010).

This test can be described thus: qHTS Assay for Lipid Storage Modulators in Drosophila S3 Cells.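 On Cell number change: cells counted by Cell Tracker Red CMTPX staining in the red channel.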 The note with it: BODIPY lipid droplet fluorescence, 18-24 h; for cell number change: measured here: cell count max response, cells fed with added oleic acid. The essentials:
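Drosophila S3 cells loaded with oleic acid (400 uM, as added) and compounds at several concentrations; lipid droplets imaged by 488-nm laser-scanning cytometry, 500–530 nm intensity and object ratio to cell channel. Percent activity normalized to 20 uM Triacsin C.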

The mark [1] stands for this setting: measured here: lipid fluorescence (Fed channel) AC50, cells fed with added oleic acid.
[2] abbreviates: measured here: cell number channel AC50, cells fed with added oleic acid.

The list shows a part of the results. Shown are side measurements of this screen, not its main read-out; they come without a call. Compounds called inactive in the main read-out are mostly missing here. Potencies come from curve fits of mixed quality, noted in brackets. Where a SMILES comes first, the peptide text is derived from it. [ ]: non-standard residue; d: D form. The star is where a group is joined. ξ: configuration not given here. Cbz = O=C(OCc1ccccc1)*; ξL = CC(C)CC(N)C(=O)O; ξP = O=C(O)C1CCCN1

By AC50 is commonly meant the concentration giving half of the maximal activity seen. Read a low AC50 as greater potency. With `CC(C)CC(NC(=O)C1CCCN1C(=O)[C@@H](C)NC(=O)OCc1ccccc1)C(=O)NCC(N)=O` (stereo not given in full) (Cbz-[dA][ξP][ξL]G-NH2), the cell number change was -27.8%. Besides, the AC50 under setting [1] is 29.1 µM [rising, partial curve, poor fit].
Take `CCOC(=O)C(NC(=O)c1ccc(OC)cc1)(Nc1cc(C)on1)C(F)(F)F` (stereo not given): the cell number change was -1.69%. Besides, the AC50 under setting [1] was 2.06 µM [rising, partial curve].
Consider `Cn1cnnc1SCC(=O)NC(=O)NC1CCCC1`, for which the cell number change worked out at 8.71%. For the same compound, under setting [1], the AC50 was 6.51 µM [falling, single point].
For the compound `CC1(C)CC(=O)C(C(c2ccc(F)cc2)C2C(=O)CC(C)(C)CC2=O)C(=O)C1`, the cell number change was -3.19%. Further, under setting [1], the AC50 is 6.51 µM [falling, single point].
Consider `CC(C)NCCCOc1ccc(C(C)(C)c2ccccc2)cc1`, for which the cell number change was -55.3%. Also, the AC50 under setting [2] was 29.1 µM [falling, single point]. Moreover, the AC50 under setting [1] was 5.17 µM [falling, full curve].
Turning to `CCc1ccc(-c2cc(C(=O)Nc3c(C)n(C)n(-c4ccccc4)c3=O)c3ccccc3n2)s1`, the cell number change is -2.93%.
As for `COc1ccccc1/C=C/C(=O)c1ccc(Cl)cc1`, the AC50 under setting [1] was 6.51 µM [falling, single point].
For `N#Cc1c(-c2ccco2)ccn(Cc2cccc(F)c2)c1=O`, the cell number change came to 25.9%. Also, the AC50 under setting [1] was 6.51 µM [falling, single point].
Turning to `COc1cc(OC)cc(C(=O)NCC2CCCN(C(=O)c3csc(C(C)C)n3)C2)c1` (stereo not given), the cell number change is -17.3%.
The same measure, in the same setting: with `COc1cccc(-c2c(NC(C)=O)n(C)c3ccccc3c2=O)c1` the figure was -14.4%.
As for `O=C(CSc1nc(-c2ccccc2)cs1)Nc1nccs1`, the cell number change was -49.1%. Moreover, under setting [2], the half-maximal activity concentration (AC50) is 14.6 µM [falling, partial curve, poor fit].
Consider `CCc1[nH]c(=O)[nH]c1C(C)S(=O)(=O)c1ccc(C)cc1` (stereo not given), for which the cell number change is -39.5%. The AC50 under setting [2] was 7.31 µM [falling, partial curve, poor fit]. In addition, the AC50 under setting [1] was 18.4 µM [falling, partial curve].
Regarding `O=C(O)CN1CCCCCC1=O`, the cell number change is 113%.
As for `COc1ccc(Br)cc1CN(C)C(=O)Cc1ccc(OC)c(S(=O)(=O)N2CCOCC2)c1`, under setting [1], the AC50 was 18.4 µM [falling, partial curve].
`Cc1oc(-c2cccc3ccccc23)nc1CN1CCN(c2ncnc3ccccc23)CC1`: the cell number change was -28.7%. For the same compound, the AC50 under setting [1] was 29.1 µM [falling, single point].
As to `CCc1ccc(NC(=O)c2ccc(-n3cncn3)c([N+](=O)[O-])c2)cc1`, the cell number change came out at 25.5%.
On to `C=CCC1NS(=O)(=O)OCC1C(C)C` (stereo not given), for which the cell number change amounted to 26.2%. Also, the AC50 under setting [1] was 29.1 µM [rising, single point].
For the compound `CCC1=Nc2cc(C(=O)NCCCN3CCOCC3)ccc2Sc2ccccc21`, the cell number change stood at 8.96%. Under setting [1], the AC50 is 20.6 µM [rising, single point].
Turning to `O=C(O)c1ccccc1C(=O)Nc1c(-c2ccccc2)nc2ccccn12`, the cell number change is -0.549%.
Regarding `COc1ccc(CCNC(=O)COC(=O)C23CC4CC(CC(Br)(C4)C2)C3)cc1`, the cell number change is -37.2%. Moreover, the AC50 under setting [2] was 23.1 µM [falling, partial curve]. Further, under setting [1], the AC50 was 0.13 µM [falling, full curve, poor fit].
For `O=C(O)c1cccc(NC(=O)c2cccc(S(=O)(=O)N3CCCCC3)c2)c1`, the cell number change was -36%. Besides, under setting [2], the AC50 is 29.1 µM [falling, single point]. The AC50 under setting [1] is 16.4 µM [falling, single point].
On to `COc1ccccc1CNC(=O)COC(=O)CNS(=O)(=O)c1ccc(C)cc1`, for which the cell number change was 21.6%.
As to `COc1ccc(CC(=O)N/N=C(\C)CC(=O)Nc2cccc(F)c2)cc1`, the cell number change is -27.6%.
Same read-out and setting: the result for `O=C(CNS(=O)(=O)/C=C/c1ccccc1)OC1CCOC1=O` (stereo not given) reads -13.4%.
As for `COc1ccc(N(CC(=O)NC2CCCCC2)C(=O)c2snc(C(N)=O)c2N)cc1`, the cell number change worked out at 12.6%. Further, under setting [1], the AC50 was 6.51 µM [rising, single point].
As to `COc1cc(S(=O)(=O)N2CCOCC2)cc(C(=O)c2nccn2C)c1OC`, the cell number change is -10%. In addition, the AC50 under setting [1] is 2.31 µM [falling, partial curve, poor fit].
Regarding `CCC1CCCCN1S(=O)(=O)c1ccc2c(c1)CCN2C(C)=O` (stereo not given), the cell number change is 8.87%.
With `C=CCC(=O)N1CCCC(CO)(Cc2ccc(F)cc2F)C1` (stereo not given), the cell number change was found to be 3.81%.
Turning to `Cc1ccc(-n2c(C)nnc2SC(C)C(=O)N2CCCC2)cc1` (stereo not given), the cell number change came to 10.5%.
Turning to `COc1cccc(/C=C/C(=O)Nc2ccc3c(c2)OCCO3)c1OC`, the cell number change turned out to be 5.86%.
As to `CCC(CC)NC(=O)CON=C1c2ccccc2-c2ccccc21`, the cell number change is -19.5%. Under setting [1], the half-maximal activity concentration (AC50) was 16.4 µM [falling, single point].
Turning to `O=C1OC(/C=C/c2ccccc2)=NC/1=C/C=C/c1ccccc1`, the cell number change worked out at 18.1%. In addition, the AC50 under setting [2] was 0.116 µM [falling, full curve, poor fit]. The AC50 under setting [1] was 0.092 µM [falling, single point].
In the case of `Cc1nc2nc(N)nn2c(C)c1C/C=C/c1ccccc1`, the cell number change came out at 39.5%. Besides, the AC50 under setting [2] is 3.66 µM [rising, full curve, poor fit].
For the compound `Cc1ccc(C(=O)N2CCN(c3ccc(C(F)(F)F)cn3)CC2)c(C)c1`, the cell number change is -7.46%.
As to `O=C(CNC(=O)c1ccccc1)N=Nc1c(O)[nH]c2ccc(Br)cc12`, the cell number change was 31.2%. Under setting [2], the AC50 is 25.9 µM [rising, single point].
On to `O=c1[nH]c2ccc(Cl)cc2c(-c2ccccc2)c1CN1CCOCC1`, for which the cell number change was -31.5%. For the same compound, under setting [2], the AC50 was 14.6 µM [falling, single point].
Consider `COc1cc(C(=O)NCCSc2ccc(Br)cc2)cc(OC)c1OC`, for which the cell number change came to 35.3%. In addition, the AC50 under setting [2] was 0.461 µM [rising, full curve, poor fit].
Take `Cc1ccccc1N=CC1=C(O)c2ccccc2C1=O`: the AC50 under setting [2] was 6.51 µM [falling, single point].
Turning to `COc1ccc(NC(=O)Nc2ccc(N3CCOCC3)c3nonc23)c(OC)c1`, the cell number change is -38.9%. In addition, the AC50 under setting [2] was 20.6 µM [falling, single point]. Further, the AC50 under setting [1] was 16.4 µM [falling, single point].
As to `COc1ccc(C2c3c(c(C)c(C)oc3=O)Oc3c(C)c(C)oc(=O)c32)cc1`, the cell number change is 6.63%. Moreover, the AC50 under setting [1] was 6.51 µM [rising, full curve, poor fit].
Consider `Cc1ccc(SCC(=O)N2N=CCC2c2ccccc2)cc1` (stereo not given), for which the cell number change is -30.9%.
On to `O=C(O)c1cccc(N2CCCCS2(=O)=O)c1`, for which the cell number change was -16.8%. Moreover, under setting [1], the AC50 was 0.259 µM [falling, full curve].
In the case of `CC(C)(C)OC(=O)CNC(=O)c1nc[nH]c1C(=O)NCc1ccccc1`, the cell number change was 2.4%. The concentration at half-maximal activity (AC50) under setting [1] was 32.6 µM [falling, single point].
Take `CC1(C)CC(=O)C2=C(C1)N(N1CCOCC1)C(N)=C(C#N)C2c1cccnc1` (stereo not given): the cell number change came out at 27.4%.
Consider `CC1CC(C)CN(C(=O)CCC(=O)Nc2nnc(C(C)C)s2)C1` (stereo not given), for which the AC50 under setting [1] was 6.51 µM [rising, single point].
As to `CC1(C(=O)N(CC(=O)NC2CCCC2)Cc2ccco2)CC(=O)N=C2C=CC=CN21` (stereo not given), the cell number change is -18.5%. Moreover, the AC50 under setting [1] is 4.11 µM [falling, full curve, poor fit].
For the compound `Nc1ccc2nc(N3CCOCC3)sc2c1`, the cell number change was found to be 62.8%. Besides, under setting [2], the half-maximal activity concentration (AC50) is 14.6 µM [rising, partial curve, poor fit].
On to `C/C(=N/NC(=O)c1ccc(-c2ccccc2)cc1)c1cc(O)cc(O)c1`, for which the cell number change was -13.9%. Moreover, the AC50 under setting [1] is 1.16 µM [falling, full curve, poor fit].
On to `O=C(/C=C/c1ccccc1)Nc1ccc(C(=O)N2CCCCC2)cc1`, for which the cell number change is -21.3%. In addition, under setting [1], the AC50 is 29.1 µM [falling, single point].
Turning to `O=c1c(-c2ccc(Cl)cc2)[n+]([O-])c2ccccc2n1O`, the AC50 under setting [2] was 3.66 µM [falling, single point].
Regarding `Cc1ccc(C(=O)Nc2nc(C)c(C(=O)Nc3ccc4c(c3)CCC4)s2)cc1`, the cell number change came to 11.7%. Besides, the AC50 under setting [1] was 0.291 µM [rising, full curve, poor fit].
For `CCCN(CCC)CCNC(=O)c1cn(C)c(=O)c2c1c1ccccc1n2C`, the cell number change came out at 4.17%. The AC50 under setting [1] was 3.26 µM [falling, full curve].
As for `O=C(Cn1nc(Cc2cccnc2)c2ccccc2c1=O)Nc1ccc2c(c1)OCO2`, under setting [1], the concentration at half-maximal activity (AC50) is 0.517 µM [rising, single point].
As to `O=C1CN(C(=O)COC(=O)c2cccnc2Cl)c2ccccc2N1`, the cell number change was 31.9%. Moreover, the AC50 under setting [1] was 6.51 µM [falling, single point].
As to `C1CCCN(c2nc3nonc3nc2N2CCCCCC2)CC1`, the cell number change was -1.76%. The concentration at half-maximal activity (AC50) under setting [2] was 0.116 µM [falling, full curve, poor fit].
On to `CC(C)CCOc1ccc(C(=O)C[N+]2(C)CCOCC2)cc1`, for which the cell number change was -1.32%. Besides, the AC50 under setting [1] is 2.91 µM [falling, partial curve].
For `CC(=O)Nc1cccc(C(=O)NNC(=O)c2ccccc2-n2cccc2)c1`, the cell number change was found to be 32.9%. Besides, the concentration at half-maximal activity (AC50) under setting [2] was 20.6 µM [rising, single point]. For the same compound, the AC50 under setting [1] is 18.4 µM [rising, partial curve, poor fit].
`Cc1cc(C)nc(N/N=C/c2cccc(Cl)c2)n1`: the cell number change amounted to 29%. Besides, the concentration at half-maximal activity (AC50) under setting [2] was 0.92 µM [rising, full curve, poor fit].
Turning to `O=C(Cn1cnc2ccccc21)Nc1ccc2c(c1)OCCCO2`, the cell number change is -16.8%. Besides, under setting [1], the AC50 was 4.61 µM [falling, full curve].
On to `Cn1cc(SCC(=O)N2CCN(c3ccccc3)CC2)c2ccccc21`, for which the cell number change was 4.82%. Besides, the AC50 under setting [1] is 1.3 µM [rising, full curve].
Turning to `COc1ccc(OCCSc2nc3nc(C)cc(C)n3n2)cc1`, the AC50 under setting [2] was 6.51 µM [rising, single point].
Regarding `Cc1ccc(CC(=O)N2CCN(c3cccc(C(F)(F)F)c3)CC2)cc1`, the cell number change was -6.75%. In addition, the AC50 under setting [1] is 0.58 µM [rising, single point].
Turning to `O=C(N/N=C/c1cccnc1)c1cc(-c2ccccc2OCc2ccccc2)n[nH]1`, the cell number change was -30.3%. In addition, under setting [2], the AC50 is 29.1 µM [falling, single point]. Further, the AC50 under setting [1] is 29.1 µM [falling, single point].
For the compound `CN1CCCN=C1COC(=O)C(O)(c1ccccc1)C1CCCCC1` (stereo not given), the cell number change worked out at 2.79%. For the same compound, under setting [1], the AC50 was 6.51 µM [rising, single point].
As to `O=C(COC(=O)c1cc(S(=O)(=O)N2CCCCC2)ccc1Cl)NCc1ccco1`, the cell number change is -37.8%. In addition, the concentration at half-maximal activity (AC50) under setting [2] is 29.1 µM [falling, single point].
